Assay [1] relates to yeast strain expressing hANT3. The assay is described as follows: microbe, parasite or virus in culture. The format is cell-based. The note with it: Saccharomyces cerevisiae, read-out: Activity hANT3 IC50.
Assay [2] has as its system yeast strain expressing hANT4. The assay is described as follows: microbe, parasite or virus in culture. The format is cell-based. The conditions noted are these: Saccharomyces cerevisiae, read-out: Activity hANT4 IC50.

Results on one compound are retold here after PMC6559718 (Journal of biomolecular screening, 2016).

In the case of `CCCCc1oc2ccccc2c1C(=O)c1cc(I)c(OCCN(CC)CC)c(I)c1` [Amiodarone], the values for the concentration for half-maximal inhibition (IC50) in assay [1] and in assay [2] were 16 ± 10 µM and 22 ± 10 µM, respectively.
